Measured values as given in PubChem BioAssay AID1508615 (Milbrandt Lab, Department of Genetics, Washington …, 2020).
The whole screen tested about 1,600 compounds, of which about 20 (1%) were called active.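 Rule for the calls: active = ratio of uncleaved NAD to its breakdown product ADP-ribose above 4, meaning the enzyme was inhibited; inactive = the rest.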 The list shows a part of the results.

Chains of the proteins cited; added tags and fusions are not shown. Lines headed by an entry give the natural chain unless they say otherwise; changes in a name come on top.
UniProt Q6SZW1: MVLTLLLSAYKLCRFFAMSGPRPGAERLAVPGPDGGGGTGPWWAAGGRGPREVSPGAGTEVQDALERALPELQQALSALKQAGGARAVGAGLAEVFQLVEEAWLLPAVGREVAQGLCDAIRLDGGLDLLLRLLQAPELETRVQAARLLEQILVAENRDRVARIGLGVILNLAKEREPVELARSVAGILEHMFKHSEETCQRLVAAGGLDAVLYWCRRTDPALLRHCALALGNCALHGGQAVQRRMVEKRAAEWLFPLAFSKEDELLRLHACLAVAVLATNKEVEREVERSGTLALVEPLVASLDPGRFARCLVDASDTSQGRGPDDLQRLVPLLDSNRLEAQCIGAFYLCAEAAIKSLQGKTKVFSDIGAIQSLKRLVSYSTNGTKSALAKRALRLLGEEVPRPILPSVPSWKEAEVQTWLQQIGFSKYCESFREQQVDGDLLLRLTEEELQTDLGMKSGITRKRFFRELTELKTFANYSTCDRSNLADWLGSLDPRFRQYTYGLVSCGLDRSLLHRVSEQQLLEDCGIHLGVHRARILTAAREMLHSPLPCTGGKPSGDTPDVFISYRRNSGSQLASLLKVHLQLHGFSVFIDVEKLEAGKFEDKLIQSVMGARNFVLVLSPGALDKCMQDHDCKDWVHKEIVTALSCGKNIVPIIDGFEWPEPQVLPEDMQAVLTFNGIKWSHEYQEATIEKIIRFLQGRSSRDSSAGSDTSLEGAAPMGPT

The compounds below were run against NAD(+) hydrolase SARM1 (Homo sapiens) (UniProt Q6SZW1) (assay: SARM1 TIR NADase inhibitors by HPLC, primary screen, cell lysate, HPLC readout (AID 1508615;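 note: substrate NAD at 5 µM with 60 min at 37 °C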)). Conditions: HEK293T SAM-TIR lysate, at 5 µM, active compounds read high.

| Compound | NAD/ADPR ratio |
| --- | --- |
| O=C1CN=C(c2ccc[nH]2)c2cc(Cl)ccc2N1 | inactive: 3 |
| Cc1ccc2cc3c(ccc4ccccc43)c3c2c1CC3 | inactive: 3 |
| O=[N+]([O-])c1ccc(-c2ccccc2)c([As](=O)(O)O)c1 | inactive: 3 |
| COc1ccc(O)c2c(=O)c3c(OC)cc4c(c3oc12)C1C=COC1O4 (stereo not drawn) | inactive: 3 |
| COc1cc2c(cc1OC)C13CCN4CC5=CCOC6CC(=O)N2C1C6C5CC43 (stereo not drawn) (tested in a mixture with another compound) | inactive: 3 |
| CCOC(=O)c1ccc2[nH]c(-c3ccc(S(=O)(=O)F)cc3)cc(=O)c2c1 | inactive: 3 |
| c1ccc(C2NCCc3[nH]cnc32)cc1 (stereo not drawn) | inactive: 3 |
| C[C@H]1CC[C@@]2(C)[C@@H](CC[C@@H]3[C@@H]2CC[C@]2(C)[C@@H](O)CC[C@@H]32)C1 | inactive: 3 |
| CCOP(=O)(OCC)/C(C#N)=C/c1ccc(Br)cc1 | inactive: 3 |
| NN=C1C(Cl)=C(Cl)C(Cl)=C1Cl | inactive: 3 |
| O=c1cccc2n1CC1CNC[C@H]2C1 | inactive: 3 |
| c1cncc(C2Nc3cccc4cccc(c34)N2)c1 | inactive: 3 |
| CCN(CC)c1ccc(C=C2C(=O)NC(=S)NC2=O)cc1 | active: 5.3 |
| O=c1cccc2n1C[C@H]1C[C@@H]2CN2CCCC[C@@H]12 | inactive: 3 |
| N#CC12CNCC1CN=N2 (stereo not drawn) | inactive: 3 |
| c1cnc2c(c1)ccc1ncccc12 | inactive: 3 |
| Cc1nc(C)c(C(=O)N/N=C/c2ccc(N(CCCl)CCCl)cc2)s1 | inactive: 3 |
| CN1CCN(c2nc(N)cc(=O)[nH]2)CC1 | inactive: 3 |
| O=C1N[C@H]2[C@H](O)[C@H](O)[C@@H](O)[C@H](O)[C@@H]2c2cc3c(c(O)c21)OCO3 | inactive: 3 |
| CC(C)(C)c1cc(C=C(C#N)C#N)cc(C(C)(C)C)c1O | inactive: 3 |
| O=C1C[C@@H]2OCC=C3C[N+]4([O-])CC[C@]56c7ccccc7N1[C@H]5[C@H]2[C@H]3C[C@@H]64 (stereo partly drawn) | inactive: 3 |
| FCCN(CCF)c1cccc(Cl)c1 | inactive: 3 |
| C=C1C/C(=C/C)C(=O)O[C@@H]2CCN3CC=C(COC(=O)[C@]1(C)O)[C@H]23 | inactive: 3 |

| Compound | NAD/ADPR ratio |
| --- | --- |
| O=P(OC1=CCCCC1)(c1ccccc1)c1ccccc1 | inactive: 3 |
| O=[N+]([O-])c1cc([As](=O)(O)c2ccc(O)c([N+](=O)[O-])c2)ccc1O | inactive: 3 |
| Nc1nc(N)c2cnnn2n1 | inactive: 3 |
| O=C1/C(=C\c2ccccc2)C2OCC=C3CN4CCC56c7ccccc7N1C5C2C3CC46 (stereo not drawn) | inactive: 3 |
| CSc1nc(N)c(N=Nc2ccc([As](=O)(O)O)cc2)c(=O)[nH]1 | inactive: 3 |
| N=Cc1c(O)n(-c2ccccc2)c(=O)n(-c2ccccc2)c1=O | inactive: 3 |
| O=C1N(c2nncs2)CCN1[N+](=O)[O-] | inactive: 3 |
| CN1CCCC1c1ccc(=O)[nH]c1 (stereo not drawn) | inactive: 3 |
| CCCC(=O)N(C)C1=Nc2ccc(Cl)cc2C(c2ccccc2)=[N+]([O-])C1 | inactive: 3 |
| CN(C)P(=O)(N(C)C)N1CC1 | inactive: 3 |
| COc1ccc2c(c1)NP(=S)(Oc1ccccc1)N2 (stereo not drawn) | inactive: 3 |
| Cn1cc(C=O)c2nccnc21 | inactive: 3 |
| C1CC2NCCC3NCCC(N1)N32 (stereo not drawn) | inactive: 3 |
| CC(=O)Nc1ccc([As](=O)(O)c2ccc([N+](=O)[O-])cc2)cc1 | inactive: 3 |
| O=C(O)c1[nH]c(=O)[nH]c(=O)c1F | inactive: 3 |
| Cc1c(C(=O)c2ccccc2)c2ccccc2n1C | inactive: 3 |
| CN1C(=O)CC[C@@]2(C)C1=CC[C@@H]1[C@@H]2CC[C@@]2(C)[C@H]1CC[C@]2(C)O | inactive: 3 |
| COc1cc(C=C2C(=O)NC(=O)NC2=O)ccc1O | inactive: 3 |
| O=C(O)CN1C(=O)CN=C(c2ccccn2)c2cc(Cl)ccc21 | inactive: 3 |
| COc1cc2c(cc1O)CC1c3c(cc(O)c(OC)c3-2)CCN1C (stereo not drawn) | inactive: 3 |
| NC(=S)c1cn(C2OC(CO)C(O)C2O)c2ncnc(N)c12 (stereo not drawn) | inactive: 3 |
| CN1CCC2(O)OCCCC2C1 (stereo not drawn) | inactive: 3 |
| C/C=C/CC1(CC)C(=O)NC(=S)NC1=O | inactive: 3 |

Reformatted: 15 of the compounds above
Compound | NAD/ADPR ratio
O=C1N(c2nncs2)CCN1[N+](=O)[O-] | inactive: 3
CN1CCCC1c1ccc(=O)[nH]c1 (stereo not drawn) | inactive: 3
CCCC(=O)N(C)C1=Nc2ccc(Cl)cc2C(c2ccccc2)=[N+]([O-])C1 | inactive: 3
CN(C)P(=O)(N(C)C)N1CC1 | inactive: 3
COc1ccc2c(c1)NP(=S)(Oc1ccccc1)N2 (stereo not drawn) | inactive: 3
Cn1cc(C=O)c2nccnc21 | inactive: 3
C1CC2NCCC3NCCC(N1)N32 (stereo not drawn) | inactive: 3
CC(=O)Nc1ccc([As](=O)(O)c2ccc([N+](=O)[O-])cc2)cc1 | inactive: 3
O=C(O)c1[nH]c(=O)[nH]c(=O)c1F | inactive: 3
Cc1c(C(=O)c2ccccc2)c2ccccc2n1C | inactive: 3
CN1C(=O)CC[C@@]2(C)C1=CC[C@@H]1[C@@H]2CC[C@@]2(C)[C@H]1CC[C@]2(C)O | inactive: 3
COc1cc(C=C2C(=O)NC(=O)NC2=O)ccc1O | inactive: 3
O=C(O)CN1C(=O)CN=C(c2ccccn2)c2cc(Cl)ccc21 | inactive: 3
COc1cc2c(cc1O)CC1c3c(cc(O)c(OC)c3-2)CCN1C (stereo not drawn) | inactive: 3
NC(=S)c1cn(C2OC(CO)C(O)C2O)c2ncnc(N)c12 (stereo not drawn) | inactive: 3

Given with tabs: 2 of the compounds above
Compound	NAD/ADPR ratio
O=[N+]([O-])c1cc([As](=O)(O)c2ccc(O)c([N+](=O)[O-])c2)ccc1O	inactive: 3
Nc1nc(N)c2cnnn2n1	inactive: 3

Following part

| Compound | NAD/ADPR ratio |
| --- | --- |
| CCC1CN1P(=O)(Oc1ccc(Cl)cc1)N1CC1CC (stereo not drawn) | inactive: 3 |
| CN(C)C1CCc2[nH]c3c(F)cc(F)cc3c2C1 (stereo not drawn) | inactive: 3 |
| C[C@H](N)C(=O)N[C@@H]1[C@H]2C(=C(O)C[C@@H](O)[C@@H]2O)C(=O)O[C@]1(C)C(Cl)Cl | inactive: 3 |
| CC1(C)CC(=O)CC(C)(C)N1O | inactive: 3 |
| CC(=O)Nc1cc([As](=O)(O)O)ccc1O | inactive: 3 |
| COc1cccc2c1cc([N+](=O)[O-])c1c(C(=O)O)cc3c(c12)OCO3 | inactive: 3 |
| CN1C2c3ccccc3C3C4c5ccccc5C(C31)C(C2[N+](=O)[O-])N4C (stereo not drawn) | inactive: 3 |
| CC12CCC3C(CCC4Cc5[nH]c6ccccc6c5CC43C)C1CCC2O (stereo not drawn) | inactive: 3 |
| O=C(/C=C/c1ccc(O)c(O)c1)OC1C(O)CC(OC(=O)/C=C/c2ccc(O)c(O)c2)(C(=O)O)CC1O (stereo not drawn) | inactive: 3 |
| CCN1CCc2ccccc2C1 | inactive: 3 |
| CCC(C)c1cnc(CC(C)C)c(=O)n1O (stereo not drawn) | inactive: 3 |
| COC1C(OC(=O)c2ccc(C)[nH]2)C(O)C(Oc2ccc3c(O)c(NC(=O)c4ccc(O)c(CC=C(C)C)c4)c(=O)oc3c2Cl)OC1(C)C (stereo not drawn) | inactive: 3 |
| CCC(CO)NC(=O)C1C=C2c3cccc4[nH]cc(c34)CC2N(C)C1 (stereo not drawn) | inactive: 3 |
| COc1ccc(CCNC2(C#N)CCCCC2)cc1OC | inactive: 3 |
| Cc1c(CCN)ccc2c1[nH]c1ccccc12 | inactive: 3 |
| Cc1cc(OCCN2CC2)c2ccccc2n1 | inactive: 3 |
| O=C(CF)N(O)c1ccc(/C=C/c2ccccc2)cc1 | inactive: 3 |
| CC(C)(O)C1C2OC(=O)C1C1(O)CC3OC34C(=O)OC2C14C (stereo not drawn) | inactive: 3 |
| S=C1NC2(CCCCC2)NC12CCCCC2 | inactive: 3 |
| CC1CC(C)OP(=O)(OCCC#N)O1 (stereo not drawn) | inactive: 3 |
| COC12C(COC(N)=O)C3=C(C(=O)C(C)=C(N)C3=O)N1CC1C2N1C (stereo not drawn) | inactive: 3 |
| O=C(NC(=O)c1c(F)cccc1F)Nc1cc(Cl)c(F)c(Cl)c1F | inactive: 3 |
